Experimental data published in paper PMC8307404 (Molecules, 2021).
For some assays here: Strings that start with PEPTIDE1 are HELM notation: dots part the residues, brackets hold end groups and non-standard residues. Square brackets hold non-standard residues; d marks the D form. Peptide text beside a SMILES is read from it. * marks the point of attachment. X3 = O=C(CCCCCNCc1nc2c(sc3cc(Br)cnc32)c(=O)[nH]1)*

Experiments:
[1] = tested on: panel of 140 PKs; assay: Kinase selectivity profiling, panel metrics; format: biochemical, human; conditions: 1 µM compound; for Gini coefficient: 139 or 140 PKs; for hit rate: fraction of PKs with residual activity below 50%
Description: Kinase selectivity profiling was performed using the commercial service provided by the MRC PPU International Centre for Kinase Profiling (Dundee, UK) using a radiometric filter-binding assay. Kinases used for analysis were of human origin. The ATP concentration applied for inhibition measurements was at or below the ATP KM value of the particular PK. ARC-3125 and ARC-3126 were screened against 139 PKs, whereas compounds 1, 2, and 8 were screened against 140 PKs. The final total concentration of inhibitors in the selectivity panel was 1 µM. Residual activities were expressed as the percentage of retained activity compared to the control without inhibitor.
From the residual activities, values of the Gini coefficient and hit rate were calculated for each individual compound. The Gini coefficient is a single-value metric whose value for a specific inhibitor depends on the number and origin of the PKs in the panel, but also on concentration of the tested compound [70]. Hit rate is the number of kinases inhibited by over 50%.

[2] = tested on: U2OS cells; assay: Cellular uptake of fluorescent probes, live-cell microscopy; format: cell-based, human
Description: For studies of the general internalization properties of ARCs, the cells were seeded at the density of 12,000–25,000 cells per well onto an Ibidi μ-plate (96-well; Ibidi GmbH, Planegg, Germany). After 24 h incubation in growth medium, the cells were treated for 10 min, 30 min, or 1 h with dilutions of compounds 6, 7, 8, or ARC-2090 (5 μM, 2.5 μM, or 1 μM final concentration) in the phenol red-free DMEM/Ham’s F12 medium supplemented with 2% ccFBS and 2 mM glutamine. Next, cells were washed twice with PBS, and imaging medium (MEMO + Supplement A 1:100) was applied subsequently. Cells were imaged with Cytation 5 wide-field microscope (BioTek; Winooski, VT, USA) using 20× air objective and the following settings: for Cy5, 623 nm LED (intensity: 2) and Cy5 filter cube (685 nm) with 104 ms integration time and detector gain value of 2; for TAMRA, 523 nm LED (intensity: 7) and RFP filter cube (593 nm) with 252 ms integration time and detector gain value of 16; for bright-field, white LED with intensity 6, 186 ms integration time and detector gain value of 15. Four independent experiments were performed.

[3] = general procedure: Fmoc solid-phase peptide synthesis; Rink amide 4-methylbenzhydrylamine resin

Molecule N=C(N)NCCC[C@@H](NC(=O)CCCCCNCc1nc2c(sc3cc(Br)cnc32)c(=O)[nH]1)C(=O)N[C@H](CCCNC(=N)N)C(=O)N[C@H](CCCNC(=N)N)C(=O)N[C@H](CCCNC(=N)N)C(=O)N[C@H](CCCNC(=N)N)C(=O)N[C@H](CCCNC(=N)N)C(=O)N[C@H](CCCCN)C(N)=O [ARC-3126, BPTP-Ahx-(D-Arg)6-D-Lys-NH2] (X3-[dR][dR][dR][dR][dR][dR][dK]-NH2) has a Gini coefficient [1] of 0.73 and a hit rate [1] of 0.09.
N=C(N)NCCC[C@@H](NC(=O)CNC(=O)[C@@H](CCCNC(=N)N)NC(=O)[C@@H](CCCNC(=N)N)NC(=O)CCCCCCCNCc1nc2c(sc3cc(Br)cnc32)c(=O)[nH]1)C(=O)N[C@H](CCCCN)C(N)=O [Compound 1, BPTP-Aoc-(D-Arg)2-Gly-D-Arg-D-Lys-NH2] gave a Gini coefficient [1] of 0.887 and a hit rate [1] of 0.022.
In the case of N=C(N)NCCC[C@@H](NC(=O)CNC(=O)[C@@H](CCCNC(=N)N)NC(=O)[C@@H](CCCNC(=N)N)NC(=O)CCCCCCCNCc1nc2c(sc3ccc(Br)cc32)c(=O)[nH]1)C(=O)N[C@H](CCCCN)C(N)=O [Compound 2, BBTP-Aoc-(D-Arg)2-Gly-D-Arg-D-Lys-NH2], the Gini coefficient [1] is reported as 0.824 and the hit rate [1] is reported as 0.079.
For CN1C(=CC=CC=CC2=[N+](CCCCCC(=O)NCCCC[C@@H](NC(=O)[C@@H](CCCNC(=N)N)NC(=O)CNC(=O)[C@@H](CCCNC(=N)N)NC(=O)[C@@H](CCCNC(=N)N)NC(=O)CCCCCCCNCc3nc4c(sc5ccc(Br)cc54)c(=O)[nH]3)C(N)=O)c3ccccc3C2(C)C)C(C)(C)c2ccccc21 [Compound 6, BBTP-Aoc-(D-Arg)2-Gly-D-Arg-[D-Lys(Cy5)]-NH2], the intracellular localization [2] was “mainly perinuclear vesicular localization”.
In the case of CN1C(=CC=CC=CC2=[N+](CCCCCC(=O)NCCCC[C@@H](NC(=O)[C@@H](CCCNC(=N)N)NC(=O)CNC(=O)[C@@H](CCCNC(=N)N)NC(=O)[C@@H](CCCNC(=N)N)NC(=O)CCCCc3cn(Cc4nc5c(sc6ccc(Br)cc65)c(=O)[nH]4)nn3)C(N)=O)c3ccccc3C2(C)C)C(C)(C)c2ccccc21 [Compound 7, BBTP-Tap-(D-Arg)2-Gly-D-Arg-[D-Lys(Cy5)]-NH2], the intracellular localization [2] is reported as “mainly perinuclear vesicular localization”.
CN(C)c1ccc2c(c1)Oc1cc(N(C)C)ccc1C21OC(=O)c2cc(C(=O)NCCCC[C@@H](NC(=O)[C@@H](CCCNC(=N)N)NC(=O)CNC(=O)[C@@H](CCCNC(=N)N)NC(=O)[C@@H](CCCNC(=N)N)NC(=O)CCCCc3cn(Cc4nc5c(sc6ccc(Br)cc65)c(=O)[nH]4)nn3)C(N)=O)ccc21 [Compound 8, BBTP-Tap-(D-Arg)2-Gly-D-Arg-[D-Lys(5-TAMRA)]-NH2] showed a Gini coefficient [1] of 0.682 and a hit rate [1] of 0.066.
For BBTP-Amt-(D-Arg)2-Gly-D-Arg-D-Lys-NH2, the “final HPLC purity” value ([3]; whole synthesis, 342 nm) was 97.5%.
In the case of BBTP-Aoc-(D-Arg)2-Gly-D-Arg-D-Lys-NH2, the “final HPLC purity” value ([3]; whole synthesis, 342 nm) is reported as 97.2%.
With “BBTP-Aoc-(D-Arg)2-Gly-D-Arg-[D-Lys(Cy5)]-NH2” the “final HPLC purity” value ([3]; conjugation step, 650 nm) was 97.4%.
In the case of “BBTP-Hyp-Aoc-(D-Arg)2-Gly-D-Arg-D-Lys-NH2”, the “final HPLC purity” value ([3]; whole synthesis, 342 nm) is reported as 97.3%.
With BBTP-Tap-(D-Arg)2-Gly-D-Arg-D-Lys-NH2 the “final HPLC purity” value ([3]; whole synthesis, 342 nm) was 96.1%.
For “BBTP-Tap-(D-Arg)2-Gly-D-Arg-[D-Lys(5-TAMRA)]-NH2”, the “final HPLC purity” value ([3]; 560 nm) was 96%.
With “BBTP-Tap-(D-Arg)2-Gly-D-Arg-[D-Lys(Cy5)]-NH2” the “final HPLC purity” value ([3]; conjugation step, 650 nm) was 98.4%.
In the case of BPTP-Ahx-(D-Arg)6-D-Lys-NH2, the “final HPLC purity” value ([3]; whole synthesis, 307 nm) is reported as 98.3%.
For BPTP-Aoc-(D-Arg)2-Gly-D-Arg-D-Lys-NH2, the “final HPLC purity” value ([3]; whole synthesis, 307 nm) was 96.1%.
With “PEPTIDE1{[dR].[dR].G.[dR].[dK].[am]}$$$$V2.0” the “final HPLC purity” value ([3]; whole synthesis, 206 nm) was 96%.
